For the assay, the target named is human recombinant VEGF A subunit (FIG. 12, 191 amino acid form) (human) (UniProt P15692). The assay is described as follows: SDS-PAGE with silver stain of purified recombinant VEGF AC from Sf9 cells; under reducing conditions splits into 25/23 kDa (VEGF A) and 20 kDa (VEGF C) bands, assigned against pure subunits and by Western analysis.

Amino acid sequences for entries named in this document (tags omitted). A change or cut given only in a name is not applied to a line headed by its entry. Chains listed by the source or under a name are the forms on record and can include a tag or linker.
human recombinant VEGF A subunit (FIG. 12, 191 amino acid form) (P15692, form named): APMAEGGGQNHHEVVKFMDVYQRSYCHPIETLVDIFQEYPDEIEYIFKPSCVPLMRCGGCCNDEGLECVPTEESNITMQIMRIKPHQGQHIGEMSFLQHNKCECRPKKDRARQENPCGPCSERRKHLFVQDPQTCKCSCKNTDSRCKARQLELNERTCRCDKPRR

Results are given in words; binding and its absence hold for the method and conditions named. Some entries that bind do so weakly or less than the wild type.

B1: human recombinant VEGF C subunit, 149 amino acid form (FIG. 11) (ligand)
chain: LPAVPPQQWALSAGNGSSEVEVVPFQEVWGRSYCRALERLVDVVSEYPSEVEHMFSPSCVSLLRCTGCCGDENLHCVPVETANVTMQLLKIRSGDRPSYVELTFSQHVRCECRPLREKMKPERCGDAVPRR
As to B1, the binding entry was “binds”.

The record behind these values is patent US6569434.
